Drawing on patent US20100015637A1 (AbbVie / Abbott, published 2010), this text covers binding for 1 molecule.

By UniProt entry, the sequences of proteins in these tests, tags left out. Where a name states a change or a piece, a line headed by the entry shows the natural chain unless it says otherwise.
UniProt P49763: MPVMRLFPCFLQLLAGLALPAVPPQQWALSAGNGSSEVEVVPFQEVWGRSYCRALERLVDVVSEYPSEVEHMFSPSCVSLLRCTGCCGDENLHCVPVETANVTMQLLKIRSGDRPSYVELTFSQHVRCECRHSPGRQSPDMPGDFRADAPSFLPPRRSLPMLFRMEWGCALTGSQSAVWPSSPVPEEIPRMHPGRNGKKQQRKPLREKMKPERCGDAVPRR

No constants are given. Whether binding was seen depends on the method and setting. Some results given as binding are weak or reduced against the parent protein; the word gives no strength. Where a sequence is shown, tags or fusion partners need not be part of it.

The target of the assay is T1, CHO human PlGF-1 comprising amino acids 1-137 (human PlGF-1-His (1-131), CHO 6305) (human) (UniProt P49763).
T1 sequence (chain, N-glycans at N21 (completely glycosylated) and N89 (partially glycosylated)): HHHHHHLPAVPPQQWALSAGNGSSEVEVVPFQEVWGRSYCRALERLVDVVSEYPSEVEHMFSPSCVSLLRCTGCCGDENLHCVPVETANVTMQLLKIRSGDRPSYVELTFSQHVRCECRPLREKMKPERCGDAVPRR
Nature of the assay: ClonepixFL colony immunoprecipitation in semi-solid medium; CHO colonies secreting human PlGF-1 (1-131).

B1: anti-human PlGF-1 monoclonal antibody from clone 1-255-189 (antibody, V domains shown)
VH: QVHLQQSGAELMKPGASVKISCKATGYTFSSYWIEWVKQRPGHGLEWIGEILPGSVSNNFNEKFKDKATLTADPSSNTAYIQVSSLTSEDSAVYYCARSTGFYYGGNYFDHWGQGTTLAVSS
VL: DVVMTQTPLSLPVSPGDQASISCRSSQSLVHSNGHTYLHWYLQKPGQSPKLLIYKVSNRFSGVPDRVSGSGSGTDFTLKISRVEAEDLGVYFCSQSTHVPPTFGGGTKLEIKR
Consider B1, for which the binding result is on record as “binds”.
